# Read-outs that look alike come from different tables or passages of the source. These are yes or no findings as the source states them, for the method shown. Binding seen in cells or lysates may run through a third protein. A yes stands for co-enrichment or nearness to the bait. Other partners may have been found. For part of these data: A no says only that the protein was not detected with the bait.
# How the values were obtained:
# Assay in all cases: affinity purification with mass spectrometry
# AKiT1-3xHA (P. berghei) = molecular target: AKiT1-3xHA (P. berghei)
# [1] = molecular target: tagged AKiT9 (P. berghei)
# NUF2-3xHA (P. berghei) [2] = molecular target: NUF2-3xHA (P. berghei)
# SKA2-3xHA (P. berghei) = molecular target: SKA2-3xHA (P. berghei)
# NUF2-3xHA (P. berghei) [3] = molecular target: NUF2-3xHA (P. berghei); remark: listed apart in the source
substance,measurement,setting,value
AKiT9 (PBANKA_1307000) (from UniProt A0A509AMZ4),binding,AKiT1-3xHA (P. berghei),binds
AKiT10 (PBANKA_0406000) (from UniProt A0A509AKJ4),binding,AKiT1-3xHA (P. berghei),binds
same,binding,[1],binds
AKiT11 (PBANKA_0803900) (from UniProt A0A509AI99),binding,AKiT1-3xHA (P. berghei),binds
same,binding,[1],binds
Apicomplexan Kinetochore protein 1 (AKiT1) (from UniProt A0A509AFF7),binding,NUF2-3xHA (P. berghei) [2],binds
PBANKA_1362400 (SKA3) (from UniProt A0A509ARM1),binding,SKA2-3xHA (P. berghei),binds
SEA1 (from UniProt A0A509AGU7),binding,NUF2-3xHA (P. berghei) [3],no binding
same,binding,AKiT1-3xHA (P. berghei),binds
same,binding,NUF2-3xHA (P. berghei) [2],no binding
same,binding,SKA2-3xHA (P. berghei),no binding
STU2 (PBANKA_1337500) (from UniProt A0A509AS96),binding,AKiT1-3xHA (P. berghei),binds

# — doi:10.1101/2021.11.03.466924
